Assay results from publication PMC4527729, “The Inner Membrane Protein PilG Interacts with DNA and the Secretin PilQ in Transformation”.

Experiments:
Assay in all cases: far-Western, overlay or dot blot; reverse orientation: 1 ug of purified full-length or partial PilG resolved by SDS-PAGE, blotted on nitrocellulose, renatured overnight at 4°C; membrane incubated 3 h with 1 ug purified full-length or partial PilQ in 10 ml renaturing buffer; bound PilQ detected with rabbit antiserum; both purified
[1] = target: PilG_(1-178) (N. meningitidis MC58)
[2] = target: PilG_(1-256) (N. meningitidis MC58)
[3] = target: PilG full-length (PilG_(FL/1-410)) (N. meningitidis MC58)

Measured: binding

B1: PilQ full-length (PilQ_(FL/1-761)) (protein, UniProt Q70M91 25-769)
chain: GNITDIKVSSLPNKQKIVKVSFDKEIVNPTGFVTSSPARIALDFEQTGISMDQQVLEYADPLLSKISAAQNSSRARLVLNLNKPGQYNTEVRGNKVWIFINESDDTVSAPARPAVKAAPAAPAKQQAAAPSTKSAVSVSEPFTPAKQQAAAPFTESVVSVSAPFSPAKQQAAASAKQQAAAPAKQQAAAPAKQQAAAPAKQTNIDFRKDGKNAGIIELAALGFAGQPDISQQHDHIIVTLKNHTLPTTLQRSLDVADFKTPVQKVTLKRLNNDTQLIITTAGNWELVNKSAAPGYFTFQVLPKKQNLESGGVNNAPKTFTGRKISLDFQDVEIRTILQILAKESGMNIVASDSVNGKMTLSLKDVPWDQALDLVMQARNLDMRQQGNIVNIAPRDELLAKDKALLQAEKDIADLGALYSQNFQLKYKNVEEFRSILRLDNADTTGNRNTLISGRGSVLIDPATNTLIVTDTRSVIEKFRKLIDELDVPAQQVMIEARIVEAADGFSRDLGVKFGATGKKKLKNDTSAFGWGVNSGFGGDDKWGAETKINLPITAAANSISLVRAISSGALNLELSASESLSKTKTLANPRVLTQNRKEAKIESGYEIPFTVTSIANGGSSTNTELKKAVLGLTVTPNITPDGQIIMTVKINKDSPAQCASGNQTILCISTKNLNTQAMVENGGTLIVGGIYEEDNGNTLTKVPLLGDIPVIGNLFKTRGKKTDRRELLIFITPRIMGTAGNSLRY
binds: all assays above

B2: PilQ_(25-132) (domain or fragment, UniProt Q70M91 25-132)
chain: GNITDIKVSSLPNKQKIVKVSFDKEIVNPTGFVTSSPARIALDFEQTGISMDQQVLEYADPLLSKISAAQNSSRARLVLNLNKPGQYNTEVRGNKVWIFINESDDTVS
binds: all assays above

B3: PilQ_(25-354) (domain or fragment, UniProt Q70M91 25-354)
chain: GNITDIKVSSLPNKQKIVKVSFDKEIVNPTGFVTSSPARIALDFEQTGISMDQQVLEYADPLLSKISAAQNSSRARLVLNLNKPGQYNTEVRGNKVWIFINESDDTVSAPARPAVKAAPAAPAKQQAAAPSTKSAVSVSEPFTPAKQQAAAPFTESVVSVSAPFSPAKQQAAASAKQQAAAPAKQQAAAPAKQQAAAPAKQTNIDFRKDGKNAGIIELAALGFAGQPDISQQHDHIIVTLKNHTLPTTLQRSLDVADFKTPVQKVTLKRLNNDTQLIITTAGNWELVNKSAAPGYFTFQVLPKKQNLESGGVNNAPKTFTGRKISLDFQD
binds: all assays above

Results are given in words; binding and its absence hold for the method and conditions named. Binding calls can cover weak binding; strength is not graded here.
